Laboratory results reported in patent US20240074990A1 (priority 2022, published 2024).
Some entries share one result that the patent states for a list of compounds. At least one structure is not confirmed: it was looked up by name or label, or the drawing left a doubt.

Key:
SARS-CoV-2 3CL protease = SARS-CoV-2 3CL protease (Severe acute respiratory syndrome coronavirus 2, UniProt P0DTD1); test: In-vitro enzyme activity inhibition test on SARS-CoV-2 3CL protease (fluorescence resonance energy transfer method); format: biochemical; details: FRET, three parallel tests, listed as acetate gossypol
SARS-CoV 3CL protease = SARS-CoV 3CL protease (Severe acute respiratory syndrome coronavirus, UniProt P0C6X7); format: biochemical; details: FRET, three parallel tests, listed as acetate gossypol

CC(=O)O.Cc1cc2c(C(C)C)c(O)c(O)c(C=O)c2c(O)c1-c1c(C)cc2c(C(C)C)c(O)c(O)c(C=O)c2c1O [Acetate gossypol, acetate gossypol]
IC50 (SARS-CoV-2 3CL protease): < 10 µM | IC50 (SARS-CoV 3CL protease): < 10 µM
